This assay has as its target HA-tagged transforming acidic coiled-coil-containing protein 3 (TACC3) (UniProt Q9Y6A5). Description: affinity purification with mass spectrometry; co-IP of HA-tagged TACC3 from transfected cells coupled with LC-MS.

Results are given in words; binding and its absence hold for the method and conditions named. Binding seen in cells or lysates may run through a third protein. A yes stands for co-enrichment or nearness to the bait. Other partners may have been found.

For “poly(A)-binding protein cytoplasmic 1 (PABPC1), endogenous (from UniProt P11940 1-636)”, the binding result is given as “binds”.

For the origin of these results see article PMC12391444.
